Experimental data reported in publication PMC10486786.
No constants are given. Whether binding was seen depends on the method and setting. In cells and extracts the contact can be indirect. Some entries that bind do so weakly or less than the wild type.

Sequences of proteins named here, by UniProt entry; tags and fusion partners are left off. Residues count along the entry.
UniProt Q9NZQ7, residues 19-290: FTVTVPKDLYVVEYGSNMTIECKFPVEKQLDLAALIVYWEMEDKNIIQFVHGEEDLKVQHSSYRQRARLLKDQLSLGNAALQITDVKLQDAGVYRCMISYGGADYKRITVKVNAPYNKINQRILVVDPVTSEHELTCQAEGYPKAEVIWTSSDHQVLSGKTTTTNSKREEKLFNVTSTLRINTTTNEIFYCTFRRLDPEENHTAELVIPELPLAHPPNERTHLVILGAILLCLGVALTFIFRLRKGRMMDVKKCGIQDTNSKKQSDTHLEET
UniProt P51681: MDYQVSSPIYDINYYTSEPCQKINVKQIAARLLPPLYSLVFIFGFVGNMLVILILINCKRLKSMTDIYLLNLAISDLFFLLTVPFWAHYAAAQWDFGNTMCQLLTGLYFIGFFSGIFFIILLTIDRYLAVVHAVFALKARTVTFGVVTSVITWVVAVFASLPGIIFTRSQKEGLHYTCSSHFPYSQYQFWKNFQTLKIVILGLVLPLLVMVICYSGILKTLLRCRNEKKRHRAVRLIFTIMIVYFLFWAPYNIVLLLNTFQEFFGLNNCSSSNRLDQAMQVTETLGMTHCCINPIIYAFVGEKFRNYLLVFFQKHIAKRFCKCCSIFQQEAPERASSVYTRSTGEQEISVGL
UniProt Q9UJU2: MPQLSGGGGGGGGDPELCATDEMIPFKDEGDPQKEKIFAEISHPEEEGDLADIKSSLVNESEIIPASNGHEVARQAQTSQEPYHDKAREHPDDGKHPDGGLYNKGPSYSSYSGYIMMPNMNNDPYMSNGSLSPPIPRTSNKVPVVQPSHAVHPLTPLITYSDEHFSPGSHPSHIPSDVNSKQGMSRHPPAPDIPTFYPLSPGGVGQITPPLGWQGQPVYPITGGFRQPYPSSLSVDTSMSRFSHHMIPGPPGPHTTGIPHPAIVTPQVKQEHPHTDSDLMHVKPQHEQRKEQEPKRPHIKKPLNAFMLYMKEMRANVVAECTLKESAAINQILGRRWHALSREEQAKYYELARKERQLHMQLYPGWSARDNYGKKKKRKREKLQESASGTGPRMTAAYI

Assays:
[1] = molecular target: T1, vascular endothelial cadherin (VE-cad), endogenous in endothelial cells (human (endogenous in HMVECs and HBMECs)) (UniProt P33151); assay: co-IP; lysates of HMVECs or HBMECs, untreated or treated with recombinant YKL-40 (200 ng/mL), conditioned media, or shRNA; antibody 12 h at 4 °C, protein G Sepharose, immunoblot
T1 sequence: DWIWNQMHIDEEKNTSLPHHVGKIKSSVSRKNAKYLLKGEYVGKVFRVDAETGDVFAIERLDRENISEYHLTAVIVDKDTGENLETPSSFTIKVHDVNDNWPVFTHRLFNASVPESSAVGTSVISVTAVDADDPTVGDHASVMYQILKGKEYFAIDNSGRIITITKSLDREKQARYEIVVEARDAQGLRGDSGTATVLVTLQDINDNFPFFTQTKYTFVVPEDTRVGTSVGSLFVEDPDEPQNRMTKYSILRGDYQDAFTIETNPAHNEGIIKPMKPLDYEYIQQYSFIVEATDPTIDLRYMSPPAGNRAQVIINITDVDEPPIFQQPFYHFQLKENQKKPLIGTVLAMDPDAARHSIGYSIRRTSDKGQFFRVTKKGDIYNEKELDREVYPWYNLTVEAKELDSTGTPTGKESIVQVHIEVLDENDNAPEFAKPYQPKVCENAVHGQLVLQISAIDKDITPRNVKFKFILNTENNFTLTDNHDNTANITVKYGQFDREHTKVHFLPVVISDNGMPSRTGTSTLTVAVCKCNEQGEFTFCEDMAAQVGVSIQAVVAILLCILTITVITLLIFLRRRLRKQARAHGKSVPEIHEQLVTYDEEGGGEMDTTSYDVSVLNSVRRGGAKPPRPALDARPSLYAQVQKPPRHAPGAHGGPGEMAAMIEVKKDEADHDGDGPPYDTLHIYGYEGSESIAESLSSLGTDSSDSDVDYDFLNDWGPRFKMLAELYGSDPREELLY

[2] = molecular target: β-catenin, endogenous in endothelial cells (human (endogenous in HMVECs and HBMECs)) (UniProt P35222); assay: as above
[3] = molecular target: T2, syndecan-1, endogenous in HMVECs (human (endogenous in HMVECs)) (UniProt P18827); assay: as above
T2 sequence: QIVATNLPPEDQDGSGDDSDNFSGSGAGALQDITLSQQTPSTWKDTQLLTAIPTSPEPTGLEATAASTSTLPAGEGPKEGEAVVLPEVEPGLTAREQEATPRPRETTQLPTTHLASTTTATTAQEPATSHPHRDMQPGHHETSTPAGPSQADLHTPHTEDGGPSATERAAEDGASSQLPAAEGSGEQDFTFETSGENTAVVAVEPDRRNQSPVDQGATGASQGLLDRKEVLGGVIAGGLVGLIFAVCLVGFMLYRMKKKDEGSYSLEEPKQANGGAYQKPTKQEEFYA

[4] = molecular target: T1, vascular endothelial cadherin (VE-cad), endogenous in endothelial cells (human (endogenous in HMVECs and HBMECs)); assay: condition: only cells treated with YKL-40 (200 ng/mL); co-IP; lysates of HMVECs or HBMECs treated with recombinant YKL-40 (200 ng/mL); antibody 12 h at 4 °C, protein G Sepharose, immunoblot
[5] = molecular target: programmed death ligand 1 (PD-L1), endogenous in endothelial cells (human (endogenous in HMVECs and HBMECs)) (UniProt Q9NZQ7); assay: co-IP; lysates of HMVECs or HBMECs, untreated or treated with recombinant YKL-40 (200 ng/mL), conditioned media, or shRNA; antibody 12 h at 4 °C, protein G Sepharose, immunoblot
[6] = molecular target: T3, β-catenin, endogenous in endothelial cells (human (endogenous in HMVECs and HBMECs)), P35222; assay: as above; conditions: remark: other sources report otherwise
T3 chain: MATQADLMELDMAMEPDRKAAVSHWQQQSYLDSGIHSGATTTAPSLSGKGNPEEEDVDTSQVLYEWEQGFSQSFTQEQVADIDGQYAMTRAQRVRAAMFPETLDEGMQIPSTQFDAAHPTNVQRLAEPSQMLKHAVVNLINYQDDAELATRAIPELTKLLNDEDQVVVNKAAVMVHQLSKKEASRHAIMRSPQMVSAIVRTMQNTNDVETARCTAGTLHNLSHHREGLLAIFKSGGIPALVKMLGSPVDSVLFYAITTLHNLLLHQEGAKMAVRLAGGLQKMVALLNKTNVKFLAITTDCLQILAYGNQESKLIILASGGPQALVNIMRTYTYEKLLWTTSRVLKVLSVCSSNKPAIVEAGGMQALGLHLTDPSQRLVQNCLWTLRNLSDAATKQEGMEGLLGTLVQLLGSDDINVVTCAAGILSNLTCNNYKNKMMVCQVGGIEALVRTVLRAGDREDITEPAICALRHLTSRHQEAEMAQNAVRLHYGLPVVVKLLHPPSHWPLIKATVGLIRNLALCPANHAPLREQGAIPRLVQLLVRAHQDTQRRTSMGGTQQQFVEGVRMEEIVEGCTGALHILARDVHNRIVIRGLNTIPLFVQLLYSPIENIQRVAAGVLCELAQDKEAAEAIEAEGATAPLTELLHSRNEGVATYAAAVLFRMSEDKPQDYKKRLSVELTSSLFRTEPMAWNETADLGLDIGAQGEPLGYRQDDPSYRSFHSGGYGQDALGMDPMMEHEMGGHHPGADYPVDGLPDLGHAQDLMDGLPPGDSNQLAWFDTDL

CCR5, endogenous in HMVECs (from UniProt P51681 1-352) (receptor)
binding [1]: binds

LEF1, endogenous in endothelial cells (from UniProt Q9UJU2 1-399)
binding [2]: binds

programmed death ligand 1 (PD-L1), endogenous in endothelial cells (from UniProt Q9NZQ7 19-290)
binding [3]: binds | binding [1]: binds | binding [4]: no binding

B1: syndecan-1, endogenous in HMVECs (protein, UniProt P18827 23-310)
chain: T2 sequence
binding [5]: binds | binding [1]: binds

B2: vascular endothelial cadherin (VE-cad), endogenous in endothelial cells, P33151 48-784 (protein)
chain: T1 sequence
binding [6]: binds
